Residue numbers refer to the chain shown, from its start. No constants are given. Whether binding was seen depends on the method and setting. In cells and extracts the contact can be indirect. Binding calls can cover weak binding; strength is not graded here. Tags and fused reporters may be left off the sequences shown.
Legend:
[1] = molecular target: T1, Flag-tagged CD82 (wild type) (human) (UniProt P27701); test: co-IP; anti-Flag antibody and G-agarose beads overnight, lysates of stable ES2 cells in IP buffer (50 mM Tris-HCl pH 7.4, 150 mM NaCl, 0.1% NP-40, 5 mM EDTA); western blot of the precipitate
T1 sequence (chain, N-glycosylated at Asn129, Asn157 and Asn198): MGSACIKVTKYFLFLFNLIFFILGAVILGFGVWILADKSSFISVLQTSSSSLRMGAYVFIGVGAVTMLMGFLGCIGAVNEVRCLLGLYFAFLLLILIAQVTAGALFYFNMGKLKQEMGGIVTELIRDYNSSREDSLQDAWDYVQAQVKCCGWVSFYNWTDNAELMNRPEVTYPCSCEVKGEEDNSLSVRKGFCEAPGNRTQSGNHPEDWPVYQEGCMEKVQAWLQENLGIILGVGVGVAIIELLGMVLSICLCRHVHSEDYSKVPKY

[2] = molecular target: T2, Flag-tagged CD82 N198Q glycosylation deficient mutant (human) (UniProt P27701); test: as above
T2 sequence (chain, glycosylation site Asn198 removed): T1 sequence (chain, N-glycosylated at Asn129, Asn157 and Asn198) with N198Q

- binding [1]: binds
- binding [2]: binds
Substance: integrin α5 (human (endogenous in ES2)) (receptor)

— publication PMC7255015
